Laboratory results: US20080286349A1, “SYSTEMS, DEVICES, AND METHODS FOR PASSIVE TRANSDERMAL DELIVERY OF ACTIVE AGENTS TO A BIOLOGICAL INTERFACE” (priority 2007, published 2008)

Test: Membrane potential measurement across skin in H-shaped Franz cell; ion mobility relative to chloride
Assay type: physicochemical, mouse
Conditions: for ΔΦ (membrane potential): 1.0% Diclofenac
Description: The electric potential difference shown here is between the outside and the inside of the skin. The “+/−” notation is opposite to that shown in Equation 12. […] These values have been used to make calculations.

O=C1O[C@H]([C@@H](O)CO)C(O)=C1O[C@H]1O[C@H](CO)[C@@H](O)[C@H](O)[C@H]1O [AA2G, L-Ascorbic acid 2-Glucoside]
Membrane Potential Δφ (AA2G 0.000059 mol cm^3): 0.0772 V | Membrane Potential Δφ (AA2G 0.000148 mol cm^3): 0.0753 V | Membrane Potential Δφ (AA2G 0.000296 mol cm^3): 0.0537 V

O=C([O-])Cc1ccccc1Nc1c(Cl)cccc1Cl.[Na+] [Diclofenac, monosodium 2-(2-(2,6-dichlorophenylamino)phenyl)acetate]
Membrane potential, Measured (0.032 mol dm^−3 sodium Diclofenac): −0.0127 V | ΔΦ (membrane potential) (KCl conc 0 %): −0.013 V | ΔΦ (membrane potential) (KCl conc 0.1 %): −0.0075 V | ΔΦ (membrane potential) (KCl conc 0.5 %): 0.002 V

CCC(NC(C)C)C(O)c1ccc(O)c2[nH]c(=O)ccc12 (centres unmarked) [Procaterol HCl, 8-hydroxy-5-[1-hydroxy-2-[(1-methylethyl)amino]butyl]-2(1H)-quinolinone]
Membrane Potential (Procaterol 0.000015 mol cm^−3): 0.0064 V | Membrane Potential (Procaterol 0.00003 mol cm^−3): 0.0054 V | Membrane Potential (Procaterol 0.00006 mol cm^−3): 0.0025 V | Membrane potential, Measured ([…] Procaterol): −0.003 V

Counter-ions that a name gives are not always drawn.
